These are yes or no findings as the source states them, for the method shown. Binding seen in cells or lysates may run through a third protein. Some entries that bind do so weakly or less than the wild type. Where a sequence is shown, tags or fusion partners need not be part of it.
B1: GST-UbL-A (UbL domain of human hHR23A, residues 1-79) (protein, not shown: a dimerising Fc or GST)
chain: MAVTITLKTLQQQTFKIRMEPDETVKVLKEKIEAEKGRDAFPVAGQKLIYAGKILSDDVPIRDYRIDEKNFVVVMVTKT
B2: GST-UbL-A^1-78 (UbL domain of hHR23A ending in Val-Val-Val-Met-Val-Thr-Lys) (protein, not shown: a dimerising Fc or GST)
chain: MAVTITLKTLQQQTFKIRMEPDETVKVLKEKIEAEKGRDAFPVAGQKLIYAGKILSDDVPIRDYRIDEKNFVVVMVTK

Sequences of proteins named here, by UniProt entry; tags and fusion partners are left off.
UniProt P54252: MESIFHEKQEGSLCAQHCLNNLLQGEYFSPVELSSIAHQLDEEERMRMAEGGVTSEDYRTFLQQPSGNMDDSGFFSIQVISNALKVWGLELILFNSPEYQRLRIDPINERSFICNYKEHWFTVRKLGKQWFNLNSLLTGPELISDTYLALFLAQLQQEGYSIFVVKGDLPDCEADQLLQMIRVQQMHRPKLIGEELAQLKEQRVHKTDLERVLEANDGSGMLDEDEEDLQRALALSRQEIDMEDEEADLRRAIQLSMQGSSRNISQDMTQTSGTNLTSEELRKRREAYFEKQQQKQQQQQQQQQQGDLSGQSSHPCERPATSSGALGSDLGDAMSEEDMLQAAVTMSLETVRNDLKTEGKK

Columns and labels:
Ataxin-3 [1] = biological target: Ataxin-3 (UniProt P54252); experiment: GST pull-down from cell extracts, immunoblot
Ataxin-3 [2] = biological target: Ataxin-3 (UniProt P54252); experiment: GST pull-down from cell extracts, immunoblot with antibodies against Ataxin-3

Row | Binder | binding (Ataxin-3 [1]) | binding (Ataxin-3 [2])
1 | B1 | binds | binds
2 | B2 | binds | 

Reference: patent US20120028271A1
